Assay results published in US10562839B2, “Medium chain fatty acid esters of β-hydroxybutyrate and butanediol and compositions and methods for using same” (The J. David Gladstone Institutes, priority 2016, dated 2020).

Legend:
Assay type in all cases: in vivo, C57BL/6 male mice
[1] = Pilot feeding study, food supplemented with C6 monoester of β-hydroxybutyrate
Experimental: C6 monoester of β-hydroxybutyrate was synthesized as described above and purified for testing in mice. The C6 monoester of β-hydroxybutyrate was mixed into ground control food (10% calories from protein), the same control diet used in the above examples involving ketogenic and control diet. The food was placed in a glass jar inside the animal cage at the start of the nighttime feeding cycle, 19:00 h. Different concentrations of the C6 monoester of β-hydroxybutyrate (w/w) were mixed into the control diet to determine which concentration was sufficient to raise BHB levels in the mice. n=4 mice/condition (2 mice per cage). All mice were 12 month-old C57BL/6 males.

[2] = Pilot feeding study, food supplemented with esters of β-hydroxybutyrate and butanediol; conditions: 10% w/w in ground normal chow
Excerpt: Different esters of β-hydroxybutyrate and butanediol were synthesized as described above and purified for testing in mice. The esters of β-hydroxybutyrate and butanediol that were supplemented into the diet of the mice in this study were as follows: 1) C8 diesters of butanediol (C8x2-BD); 2) C8 monoesters of β-hydroxybutyrate (C8-BHB); 3) C6 diesters of β-hydroxybutyrate (C6x2-BHB); 4) C6 monoesters of β-hydroxybutyrate (C6-BHB); and 5) C6 diesters of butanediol (C6x2-BD). Food compositions supplemented with 1,3-butanediol were also tested. Compounds were mixed at 10% w/w in ground normal chow (20% calories from protein) to match standard vivarium feed. The food was provided in a glass jar inside the animal cage. n=2 mice/condition, 18 mice total. All mice were 12 month-old C57BL/6 males. Mice were placed in individual cages to record food intake more precisely. Food was switched back to normal chow at 72 hrs (ground and in a glass jar).

[3] = Feeding study, food supplemented with C6 diesters of β-hydroxybutyrate; conditions: 10% w/w in re-pelleted standard chow
Excerpt: Based on the results of the above Pilot studies, the C6 diesters of β-hydroxybutyrate were selected for a longer study with a greater number of mice to see if it would remain ketogenic even after food intake normalized. C6 diesters of β-hydroxybutyrate were synthesized as described above and purified for testing in mice. The C6 diesters of β-hydroxybutyrate were mixed at 10% w/w into ground standard chow diet (20% calories from protein), which was re-formed into pellets. Re-pelleted food was used to minimize any variable effects from a change in diet texture to ground.
The pelleted food was consumed by the mice after being placed in a glass jar in the animal cage. Four mice per diet were tested, with the mice individually caged. All mice were 12 month-old C57BL/6 males. Daily weight and caloric intake was monitored and blood was drawn for glucose and β-hydroxybutyrate levels on the eighth night. […] By the 7th night, the weights of the mice stabilized and 24 hour caloric intake was similar between the control diet and the mice that consumed food supplemented with C6 esters of β-hydroxybutyrate.

## CCCCCC(=O)O[C@H](C)CC(=O)OCC [C6-BHB]
[1]; 2.5% and 5% by weight in food, normal amount of food ingested
  weight change: weight loss
[1]; 5% by weight in control food
  amount of food consumed over the first 12 hours relative to control: did not change the amount of food consumed
[1]; 10% and 20% by weight in control food
  food intake: less palatable to the mice and was ingested at a lower rate
[1]; 10% and 20% by weight in food, attributed to fasting
  blood glucose over the first 12 hours: decreasing blood glucose
[1]; different amounts in food, normal range min.=70 mg/dL, max=180 mg/dL
  blood glucose levels: within the normal range of glycaemia
[2]
  weight loss: significant weight loss

## CCCCCC(=O)OCCC(C)OC(=O)CCCCC (stereo not shown) [C6x2-BD]
[2]
  weight loss: significant weight loss

## CCCCCCOC(=O)C[C@@H](C)OC(=O)CCCCC [C6x2-BHB]
[2]
  weight loss: significant weight loss
[3]
  24 hour caloric intake by the 7th night, versus control diet: similar
  food intake and weight, initial: initially ate less food and lost weight
  weights of the mice by the 7th night: stabilized

## CCCCCCCC(=O)O[C@H](C)CC(=O)OCC [C8-BHB]
[2]
  weight loss: significant weight loss

## CCCCCCCC(=O)OCCC(C)OC(=O)CCCCCCC (stereo not shown) [C8x2-BD]
[2]
  weight loss: lost approximately the same amount of weight as those consuming the control food composition
